Laboratory results as given in publication PMC10899256.
No constants are given. Whether binding was seen depends on the method and setting. In cells and extracts the contact can be indirect. Some binding calls cover weakened binding; strength is not graded here. Where a sequence is shown, tags or fusion partners need not be part of it.

Target: T1, Flag-LKB1 (full-length LKB1) (human) (UniProt Q15831)
T1 sequence: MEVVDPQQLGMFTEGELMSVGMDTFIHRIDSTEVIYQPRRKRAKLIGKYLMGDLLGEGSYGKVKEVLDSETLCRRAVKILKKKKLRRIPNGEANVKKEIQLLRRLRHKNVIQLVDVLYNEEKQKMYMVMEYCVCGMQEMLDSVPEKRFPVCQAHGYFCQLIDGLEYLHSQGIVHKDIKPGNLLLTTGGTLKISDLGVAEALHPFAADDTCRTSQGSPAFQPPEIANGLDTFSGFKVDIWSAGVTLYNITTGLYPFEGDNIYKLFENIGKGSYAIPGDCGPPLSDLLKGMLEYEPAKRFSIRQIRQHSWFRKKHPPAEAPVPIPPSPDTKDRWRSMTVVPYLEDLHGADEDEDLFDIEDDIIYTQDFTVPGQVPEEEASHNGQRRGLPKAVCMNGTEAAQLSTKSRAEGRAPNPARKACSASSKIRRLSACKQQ
Assay: co-IP; co-transfected HEK293T; lysate in NETN buffer, anti-Flag Affinity Gel overnight at 4 °C, immunoblot

- binding: binds weakly
B1: mCherry-TBC1D23 3K (K632E/K633E/K634E) (protein, UniProt Q9NUY8-2 1-684)
chain: MAEGEDVPPLPTSSGDGWEKDLEEALEAGGCDLETLRNIIQGRPLPADLRAKVWKIALNVAGKGDSLASWDGILDLPEQNTIHKDCLQFIDQLSVPEEKAAELLLDIESVITFYCKSRNIKYSTSLSWIHLLKPLVHLQLPRSDLYNCFYAIMNKYIPRDCSQKGRPFHLFRLLIQYHEPELCSYLDTKKITPDSYALNWLGSLFACYCSTEVTQAIWDGYLQQADPFFIYFLMLIILVNAKEVILTQESDSKEEVIKFLENTPSSLNIEDIEDLFSLAQYYCSKTPASFRKDNHHLFGSTLLGIKDDDADLSQALCLAISVSEILQANQLQGEGVRFFVVDCRPAEQYNAGHLSTAFHLDSDLMLQNPSEFAQSVKSLLEAQKQSIESGSIAGGEHLCFMGSGREEEDMYMNMVLAHFLQKNKEYVSIASGGFMALQQHLADINVDGPENGYGHWIASTSGSRSSINSVDGESPNGSSDRGMKSLVNKMTVALKTKSVNVREKVISFIENTSTPVDRHVSSSDRVGKPYRGVKPVFSIGDEEEYDTDEIDSSSMSDDDRKEVVNIQTWINKPDVKHHFPCKEVKESGHMFPSHLLVTATHMYCLREIVSRKGLAYIQSRQALNSVVKITSEEEHPELITFKYGNSSASGIEILAIERYLIPNAGDATKAIKQQIMKVLDALES
